A short description of the series: Pharmacokinetics of oral nafamostat mesylate solution in healthy male and female subjects. In kind it is in vivo. As to conditions: human, 200 mg dose level, Day 4, 0 h post-dose, individual subjects, listed as NM, dimethanesulfonate. The method, then:
Part 1: Single Ascending Dose Study. Male and female subjects aged 18 - 70 were administered a single dose of 50 mg nafamostat mesylate on day 1, 100 mg nafamostat mesylate on day 3 or 4, and 200 mg nafamostat mesylate on day 5, 6, or 7. Nafamostat mesylate was administered in the form of an oral solution. […]
Part 2: Multiple Ascending Dose Study. Subjects were divided into 2 cohorts. Cohort 1 received an oral solution of 100 mg/mL nafamostat mesylate twice a day for 5 days with pharmacokinetic evaluations on each day. […] Safety evaluations continued for 48 hours after the last dose. After review and evidence of safety, Cohort 2 received an oral solution of 200 mg/mL nafamostat mesylate twice a day for 5 days with pharmacokinetic evaluations on each day. […] Safety evaluations continued for 48 hours after the last dose.
Part 3: Single Fixed Dose Administered Twice Daily for 5 Days. Six subjects, different than the subjects from Parts 1 and 2, received an oral solution of 200 mg/mL nafamostat mesylate twice a day for 5 days. Blood samples were obtained at pre-dose (0 hr.) and at 0.5, 1, 2, 3, 4, 6, and 8 hours after the first dose on Day 1 and again after the first dose on Day 5. […]
Nafamostat pharmacokinetics was evaluated at the 200 mg dose levels.

Further values from the same series stand in other lists.

For `CS(=O)(=O)O.CS(=O)(=O)O.N=C(N)Nc1ccc(C(=O)Oc2ccc3cc(C(=N)N)ccc3c2)cc1` [nafamostat mesylate, 6-amidino-2-naphthyl p-guanidinobenzoate dimethanesulfonate], the “NM” value was found to be 0.457 ng/mL.

Source of the values: patent US20230190697A1, “METHODS FOR TREATING VIRAL INFECTIONS WITH NAFAMOSTAT” (priority 2020, published 2023).
